In US11965039B2 (priority 2018, dated 2024):
Positions of bridges follow the written chain, without caps; N, C: chain ends.

Test: general procedure: Fmoc solid-phase peptide synthesis; TentaGel S RAM
Conditions: analytical HPLC and MS; for final HPLC purity: oxidative folding step; for crude purity (method not given): whole synthesis

Substance	final HPLC purity [%]	crude purity (method not given)
Ac-SEFC(1)I[1-Me-Trp]QDWGEHRC(1)[Sar]EGA-K([17-carboxy-heptadecanoyl][γGlu]G[Peg3][γGlu][Peg3])-NH2	91	˜41-48%
Ac-ICIWQDWGAHRCT-NH2 (disulfide 2-12; SMILES CC[C@H](C)[C@H](NC(C)=O)C(=O)N[C@H]1CSSC[C@@H](C(=O)N[C@H](C(N)=O)[C@@H](C)O)NC(=O)[C@H](CCCNC(=N)N)NC(=O)[C@H](Cc2c[nH]cn2)NC(=O)[C@H](C)NC(=O)CNC(=O)[C@H](Cc2c[nH]c3ccccc23)NC(=O)[C@H](CC(=O)O)NC(=O)[C@H](CCC(N)=O)NC(=O)[C@H](Cc2c[nH]c3ccccc23)NC(=O)[C@H]([C@@H](C)CC)NC1=O)	92	˜30%
